Experiment [1] deals with T1, OR7D4 (Homo sapiens) (UniProt Q8NG98).
T1 sequence (whole entry): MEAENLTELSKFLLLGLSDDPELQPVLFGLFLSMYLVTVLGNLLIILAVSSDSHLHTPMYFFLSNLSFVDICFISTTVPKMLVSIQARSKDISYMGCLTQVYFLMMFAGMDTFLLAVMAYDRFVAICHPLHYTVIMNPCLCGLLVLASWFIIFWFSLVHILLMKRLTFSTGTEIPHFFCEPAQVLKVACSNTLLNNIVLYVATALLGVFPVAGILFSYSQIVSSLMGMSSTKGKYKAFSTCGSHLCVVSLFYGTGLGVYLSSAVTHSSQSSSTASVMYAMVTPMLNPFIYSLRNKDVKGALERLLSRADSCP
Particulars: stereoisomer not certain. An outline of the steps:
(§1)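 Each receptor–molecule pair is labelled responsive or non-responsive (inactive) according to whether the original authors judged the measured signal statistically different from baseline. The data were taken from the main text and supplementary material of published papers and checked for typos and inconsistencies. Assay methods differed by source, with transient luciferase assays in mammalian cell lines being common.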

Chains of the proteins cited; added tags and fusions are not shown. Chains listed by the source or under a name are the forms on record and can include a tag or linker.
OR7D4, as listed by the source: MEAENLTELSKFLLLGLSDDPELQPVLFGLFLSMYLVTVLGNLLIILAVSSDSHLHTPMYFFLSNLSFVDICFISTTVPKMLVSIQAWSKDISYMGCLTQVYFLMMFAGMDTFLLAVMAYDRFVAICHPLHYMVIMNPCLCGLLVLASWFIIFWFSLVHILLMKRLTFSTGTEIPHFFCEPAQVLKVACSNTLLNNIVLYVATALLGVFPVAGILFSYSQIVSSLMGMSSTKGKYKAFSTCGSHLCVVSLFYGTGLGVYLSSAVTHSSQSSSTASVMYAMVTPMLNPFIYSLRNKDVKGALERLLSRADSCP

In experiment [2] the test system is T2, OR7D4.
T2 sequence (whole entry): T1 sequence (whole entry) with R88W, T133M
Particulars: stereoisomer not certain. The method, boiled down:
as §1

Changes are numbered by the printed parent chain. The entries are a selection whose mix differs from that of the whole data set. Calls are pooled over several reports, among them a noisy single-well screen.
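Also: active if original authors judged signal statistically different from baseline.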

For the compound `CCOc1cc(C=O)ccc1O`, the “odorant receptor agonist call” value in experiment [1] and in experiment [2] was “inactive” throughout.

(Values after the M2OR odorant receptor database.)
